The other results are listed elsewhere or left out.
Tests used:
Experiment in all cases: log2 fold change, soluble protein after heating vs DMSO (PISA); higher = thermal stabilisation; K562 lysate, 10 uM; active = over 0.2 and 3.5 SD of the protein, either way, in both replicates (recomputed)
[1] = compound: CCCS(=O)(=O)Nc1ccc(F)c(C(=O)c2c[nH]c3ncc(-c4ccc(Cl)cc4)cc23)c1F [vemurafenib]
Outline: (§1)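 Soluble protein was defined as the supernatant remaining after 21,000xg for 90 min, following pooling of heated aliquots and adjustment to 0.5% NP-40 at 4°C. Before that, crude K562 extract at 1 mg/mL protein in PBS pH 7.4 with 1 mM MgCl2 was treated with 10 μM compound for 30 min and heated for 3 min across 48°C-58°C. Quantification used TMTpro 16plex LC-MS/MS with channel sums equalised, and values are log-two fold changes in thermal stability relative to solvent controls from duplicates.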

By UniProt entry, the sequences of proteins in these tests, tags left out. Where a name states a change or a piece, a line headed by the entry shows the natural chain unless it says otherwise.
UniProt Q12873: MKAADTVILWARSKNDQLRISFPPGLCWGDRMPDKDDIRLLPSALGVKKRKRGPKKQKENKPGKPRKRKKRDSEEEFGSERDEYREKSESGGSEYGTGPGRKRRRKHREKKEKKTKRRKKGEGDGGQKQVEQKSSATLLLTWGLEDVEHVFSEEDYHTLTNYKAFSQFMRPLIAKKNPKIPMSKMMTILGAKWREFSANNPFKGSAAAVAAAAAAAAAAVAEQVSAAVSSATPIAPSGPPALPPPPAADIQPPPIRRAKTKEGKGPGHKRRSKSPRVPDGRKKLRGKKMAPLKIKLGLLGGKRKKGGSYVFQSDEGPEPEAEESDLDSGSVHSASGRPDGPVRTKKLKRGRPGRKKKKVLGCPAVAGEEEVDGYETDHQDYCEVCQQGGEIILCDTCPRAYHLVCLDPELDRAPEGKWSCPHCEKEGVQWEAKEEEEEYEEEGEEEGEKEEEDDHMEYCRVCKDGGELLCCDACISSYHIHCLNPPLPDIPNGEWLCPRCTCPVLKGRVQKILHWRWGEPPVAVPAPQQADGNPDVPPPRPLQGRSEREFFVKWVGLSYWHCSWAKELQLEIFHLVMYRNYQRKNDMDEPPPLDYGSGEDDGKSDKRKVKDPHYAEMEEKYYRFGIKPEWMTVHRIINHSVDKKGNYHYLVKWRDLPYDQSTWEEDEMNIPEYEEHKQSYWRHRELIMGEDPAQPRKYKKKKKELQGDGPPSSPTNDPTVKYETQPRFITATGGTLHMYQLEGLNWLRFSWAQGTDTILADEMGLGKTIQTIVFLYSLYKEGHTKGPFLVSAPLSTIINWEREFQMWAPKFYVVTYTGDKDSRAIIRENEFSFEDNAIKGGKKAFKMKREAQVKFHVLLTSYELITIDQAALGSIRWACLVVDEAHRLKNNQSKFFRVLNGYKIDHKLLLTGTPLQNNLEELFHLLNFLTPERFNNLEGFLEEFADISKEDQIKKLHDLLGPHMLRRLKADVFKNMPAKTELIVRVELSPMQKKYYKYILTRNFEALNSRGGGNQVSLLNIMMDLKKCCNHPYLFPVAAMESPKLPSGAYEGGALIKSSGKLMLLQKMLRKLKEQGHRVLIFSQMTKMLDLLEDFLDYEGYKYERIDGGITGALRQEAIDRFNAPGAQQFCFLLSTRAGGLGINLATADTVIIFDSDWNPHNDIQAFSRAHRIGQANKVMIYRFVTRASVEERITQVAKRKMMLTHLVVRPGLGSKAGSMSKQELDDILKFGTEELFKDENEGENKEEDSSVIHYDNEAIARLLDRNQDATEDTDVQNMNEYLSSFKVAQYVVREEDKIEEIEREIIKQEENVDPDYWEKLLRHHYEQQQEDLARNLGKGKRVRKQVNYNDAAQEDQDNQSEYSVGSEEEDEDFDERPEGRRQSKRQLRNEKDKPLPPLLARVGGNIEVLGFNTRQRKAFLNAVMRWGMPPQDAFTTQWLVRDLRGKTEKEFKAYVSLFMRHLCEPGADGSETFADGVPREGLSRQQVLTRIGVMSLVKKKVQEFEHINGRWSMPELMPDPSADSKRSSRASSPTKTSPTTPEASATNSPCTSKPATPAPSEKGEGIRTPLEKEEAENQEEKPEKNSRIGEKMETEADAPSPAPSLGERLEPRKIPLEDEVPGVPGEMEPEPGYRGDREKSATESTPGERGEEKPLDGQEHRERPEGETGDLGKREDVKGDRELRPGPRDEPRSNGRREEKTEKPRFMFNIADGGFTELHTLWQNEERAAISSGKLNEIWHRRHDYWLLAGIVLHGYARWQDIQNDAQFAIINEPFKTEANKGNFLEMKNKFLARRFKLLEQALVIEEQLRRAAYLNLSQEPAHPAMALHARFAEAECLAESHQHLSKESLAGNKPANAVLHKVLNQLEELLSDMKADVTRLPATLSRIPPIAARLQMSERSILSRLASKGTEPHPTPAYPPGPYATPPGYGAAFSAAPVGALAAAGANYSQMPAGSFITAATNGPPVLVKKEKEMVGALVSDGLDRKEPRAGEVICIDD
UniProt Q9BWS9: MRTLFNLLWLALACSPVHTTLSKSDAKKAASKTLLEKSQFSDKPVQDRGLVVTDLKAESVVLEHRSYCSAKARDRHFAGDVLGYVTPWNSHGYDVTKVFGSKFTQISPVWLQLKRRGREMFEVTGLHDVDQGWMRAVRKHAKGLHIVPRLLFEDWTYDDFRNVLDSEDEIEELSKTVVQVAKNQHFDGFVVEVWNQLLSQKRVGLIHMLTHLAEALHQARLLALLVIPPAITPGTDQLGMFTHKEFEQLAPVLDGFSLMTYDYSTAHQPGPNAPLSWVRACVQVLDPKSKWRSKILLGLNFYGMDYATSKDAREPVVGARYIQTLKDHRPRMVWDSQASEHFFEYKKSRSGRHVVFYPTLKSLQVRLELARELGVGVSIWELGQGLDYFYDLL
UniProt Q9H5X1: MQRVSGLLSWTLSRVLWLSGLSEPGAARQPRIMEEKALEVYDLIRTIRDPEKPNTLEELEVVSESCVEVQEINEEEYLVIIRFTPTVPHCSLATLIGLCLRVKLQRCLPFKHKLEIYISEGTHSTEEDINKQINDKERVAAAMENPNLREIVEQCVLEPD
UniProt Q8N5K1: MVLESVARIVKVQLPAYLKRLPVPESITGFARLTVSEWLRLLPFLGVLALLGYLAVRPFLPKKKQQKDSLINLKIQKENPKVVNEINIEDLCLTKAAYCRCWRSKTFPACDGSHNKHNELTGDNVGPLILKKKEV
UniProt Q9BQ75: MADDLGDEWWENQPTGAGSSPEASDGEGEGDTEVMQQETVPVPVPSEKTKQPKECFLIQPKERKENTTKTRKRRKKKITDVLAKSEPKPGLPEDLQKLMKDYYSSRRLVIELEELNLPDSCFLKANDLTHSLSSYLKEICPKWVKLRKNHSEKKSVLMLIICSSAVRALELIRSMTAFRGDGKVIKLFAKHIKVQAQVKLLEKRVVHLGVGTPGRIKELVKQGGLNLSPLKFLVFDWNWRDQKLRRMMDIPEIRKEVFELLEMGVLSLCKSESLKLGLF
UniProt Q9Y259: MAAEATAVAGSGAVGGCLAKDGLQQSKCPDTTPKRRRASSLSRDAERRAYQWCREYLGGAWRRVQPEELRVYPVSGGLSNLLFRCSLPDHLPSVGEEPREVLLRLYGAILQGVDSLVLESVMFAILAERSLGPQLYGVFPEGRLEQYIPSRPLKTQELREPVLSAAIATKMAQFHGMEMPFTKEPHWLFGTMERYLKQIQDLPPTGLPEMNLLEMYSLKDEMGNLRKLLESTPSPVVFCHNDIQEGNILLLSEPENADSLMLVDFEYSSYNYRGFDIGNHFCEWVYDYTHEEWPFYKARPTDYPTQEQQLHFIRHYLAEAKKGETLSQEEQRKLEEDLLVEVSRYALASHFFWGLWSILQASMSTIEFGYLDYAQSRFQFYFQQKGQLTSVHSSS
UniProt Q8NFW8: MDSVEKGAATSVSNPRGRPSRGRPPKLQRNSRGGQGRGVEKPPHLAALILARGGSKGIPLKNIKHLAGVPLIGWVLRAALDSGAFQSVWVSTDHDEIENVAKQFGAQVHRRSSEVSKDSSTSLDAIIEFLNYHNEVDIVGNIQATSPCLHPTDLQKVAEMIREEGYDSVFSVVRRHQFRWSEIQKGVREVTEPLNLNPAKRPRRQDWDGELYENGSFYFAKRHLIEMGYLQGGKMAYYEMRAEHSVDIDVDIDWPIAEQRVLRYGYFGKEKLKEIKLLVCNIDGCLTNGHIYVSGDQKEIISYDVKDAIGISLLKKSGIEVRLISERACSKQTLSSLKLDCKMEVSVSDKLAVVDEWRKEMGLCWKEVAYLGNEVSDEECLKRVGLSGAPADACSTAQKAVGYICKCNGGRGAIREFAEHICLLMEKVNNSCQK
UniProt Q9HCK8: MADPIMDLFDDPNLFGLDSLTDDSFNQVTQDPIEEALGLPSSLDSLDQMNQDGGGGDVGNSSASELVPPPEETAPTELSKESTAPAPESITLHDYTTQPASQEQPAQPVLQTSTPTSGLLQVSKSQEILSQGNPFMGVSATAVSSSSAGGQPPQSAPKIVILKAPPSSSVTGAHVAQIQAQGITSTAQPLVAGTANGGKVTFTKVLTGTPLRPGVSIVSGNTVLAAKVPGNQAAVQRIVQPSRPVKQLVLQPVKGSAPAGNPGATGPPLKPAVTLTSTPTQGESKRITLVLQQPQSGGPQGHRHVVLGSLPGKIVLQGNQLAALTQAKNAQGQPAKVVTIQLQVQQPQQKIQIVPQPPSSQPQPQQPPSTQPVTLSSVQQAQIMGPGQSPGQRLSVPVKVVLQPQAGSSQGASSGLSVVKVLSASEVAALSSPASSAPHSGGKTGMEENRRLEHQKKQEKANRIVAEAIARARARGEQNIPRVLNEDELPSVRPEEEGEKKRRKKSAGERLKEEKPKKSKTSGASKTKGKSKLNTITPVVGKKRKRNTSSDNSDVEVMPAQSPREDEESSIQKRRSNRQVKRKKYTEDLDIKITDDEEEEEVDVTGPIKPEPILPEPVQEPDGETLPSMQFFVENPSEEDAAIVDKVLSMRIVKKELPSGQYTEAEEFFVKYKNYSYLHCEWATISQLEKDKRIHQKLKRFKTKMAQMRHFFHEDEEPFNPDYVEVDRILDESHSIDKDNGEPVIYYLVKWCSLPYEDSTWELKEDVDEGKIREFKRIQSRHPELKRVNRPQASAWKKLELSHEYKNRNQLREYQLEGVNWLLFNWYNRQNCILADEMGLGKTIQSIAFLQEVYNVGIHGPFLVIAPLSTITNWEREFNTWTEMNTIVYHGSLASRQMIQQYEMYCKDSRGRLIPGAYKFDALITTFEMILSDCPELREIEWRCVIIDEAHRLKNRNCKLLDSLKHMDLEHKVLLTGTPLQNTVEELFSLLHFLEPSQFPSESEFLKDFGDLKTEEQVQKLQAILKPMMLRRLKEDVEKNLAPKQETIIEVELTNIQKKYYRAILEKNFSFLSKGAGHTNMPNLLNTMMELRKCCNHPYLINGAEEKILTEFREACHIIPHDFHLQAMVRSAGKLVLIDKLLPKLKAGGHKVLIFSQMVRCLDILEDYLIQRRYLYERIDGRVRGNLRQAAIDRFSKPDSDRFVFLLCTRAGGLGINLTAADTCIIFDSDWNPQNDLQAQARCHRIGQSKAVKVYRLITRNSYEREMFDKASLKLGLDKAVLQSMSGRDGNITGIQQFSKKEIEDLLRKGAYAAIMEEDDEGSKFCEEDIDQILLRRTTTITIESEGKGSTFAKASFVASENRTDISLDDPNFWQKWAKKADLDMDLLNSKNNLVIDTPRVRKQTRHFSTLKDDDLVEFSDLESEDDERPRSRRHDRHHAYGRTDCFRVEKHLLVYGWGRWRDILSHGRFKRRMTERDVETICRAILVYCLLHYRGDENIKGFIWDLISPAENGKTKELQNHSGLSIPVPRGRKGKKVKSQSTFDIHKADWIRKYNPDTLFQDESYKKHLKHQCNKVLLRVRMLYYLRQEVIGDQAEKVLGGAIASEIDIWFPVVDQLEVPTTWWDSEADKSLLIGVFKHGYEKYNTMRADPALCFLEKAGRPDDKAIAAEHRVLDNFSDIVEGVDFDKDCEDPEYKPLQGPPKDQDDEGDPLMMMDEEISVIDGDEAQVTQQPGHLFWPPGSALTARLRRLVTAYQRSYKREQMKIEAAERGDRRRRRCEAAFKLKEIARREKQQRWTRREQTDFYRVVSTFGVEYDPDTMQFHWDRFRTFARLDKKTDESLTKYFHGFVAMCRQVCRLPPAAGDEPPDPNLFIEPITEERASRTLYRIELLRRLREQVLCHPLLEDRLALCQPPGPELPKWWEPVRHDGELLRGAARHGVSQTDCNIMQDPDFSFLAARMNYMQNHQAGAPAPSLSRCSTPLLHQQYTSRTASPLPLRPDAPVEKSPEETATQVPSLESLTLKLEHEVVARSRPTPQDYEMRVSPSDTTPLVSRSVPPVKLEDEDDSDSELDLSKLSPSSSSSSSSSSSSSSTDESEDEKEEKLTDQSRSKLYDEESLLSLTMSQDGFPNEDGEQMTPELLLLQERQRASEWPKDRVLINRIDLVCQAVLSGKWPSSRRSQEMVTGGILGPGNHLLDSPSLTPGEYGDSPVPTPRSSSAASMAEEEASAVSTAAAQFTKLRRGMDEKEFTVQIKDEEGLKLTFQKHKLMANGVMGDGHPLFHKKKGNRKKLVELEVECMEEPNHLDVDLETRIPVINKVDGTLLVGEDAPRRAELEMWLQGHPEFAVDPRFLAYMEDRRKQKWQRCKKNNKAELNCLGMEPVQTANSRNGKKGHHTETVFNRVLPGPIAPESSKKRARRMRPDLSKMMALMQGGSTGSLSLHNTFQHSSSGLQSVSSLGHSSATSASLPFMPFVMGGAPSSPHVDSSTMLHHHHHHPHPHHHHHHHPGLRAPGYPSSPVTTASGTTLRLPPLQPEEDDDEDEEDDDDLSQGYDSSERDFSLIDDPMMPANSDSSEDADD

[2] = compound: CCCS(=O)(=O)Nc1ccc(F)c(C(=O)c2c[nH]c3ncc(Cl)cc23)c1F
Outline: as §1

[3] = compound: CCN(CCCOc1ccc2c(Nc3cc(CC(=O)Nc4cccc(F)c4)[nH]n3)ncnc2c1)CCOP(=O)(O)O [barasertib]
Outline: as §1

[4] = compound: CC[C@@H]1C(=O)N(C)c2cnc(Nc3ccc(C(=O)NC4CCN(C)CC4)cc3OC)nc2N1C1CCCC1
Outline: as §1

[5] = compound: CC[C@@H]1C(=O)N(C)c2cnc(Nc3ccc(C(=O)N[C@H]4CC[C@H](N5CCN(CC6CC6)CC5)CC4)cc3OC)nc2N1C(C)C [volasertib]
Outline: as §1

[6] = compound: CCn1c(C(=O)N(C2CC2)C2CC2)cc2c3c(ncn3C)c(Nc3cc(C)n(C)n3)nc21
Outline: as §1

[7] = compound: CCn1cc(-c2ccnc3[nH]c(-c4cccc(CN(C)C)c4)cc23)c(-c2ccc(NC(=O)N(C)C)cc2)n1
Outline: as §1

[8] = compound: CN1CCC(CNc2ccc3ncc(-c4cccc(OC(F)(F)F)c4)n3n2)CC1
Outline: as §1

[9] = compound: CN1CCN(CCOc2cc(OC3CCOCC3)c3c(Nc4c(Cl)ccc5c4OCO5)ncnc3c2)CC1 [saracatinib]
Outline: as §1

[10] = compound: CN1CCN(c2nc(C3=C(c4c[nH]c5ccccc45)C(=O)NC3=O)c3ccccc3n2)CC1 [sotrastaurin]
Outline: as §1

[11] = compound: CN1CC[C@H](c2c(O)cc(O)c3c(=O)cc(-c4ccccc4Cl)oc23)[C@H](O)C1 [alvocidib]
Outline: as §1

[12] = compound: CN1CCc2c(c3ccccc3n2Cc2ccc(C(=O)NO)cc2)C1 [Tubastatin A]
Outline: as §1

[13] = compound: CNC(=O)C1=CC=CC=C1NC2=NC(=NC=C2Cl)NC3=C(C=C(C=C3)N4CCOCC4)OC
Outline: as §1

[14] = compound: CNC(=O)c1ccc(Nc2ncc(C(F)(F)F)c(NCc3nccnc3N(C)S(C)(=O)=O)n2)cc1 [defactinib]
Outline: as §1

[15] = compound: CNc1nc(-c2ccc3c(N)n[nH]c3c2)cc(N2C[C@@H](C(=O)NC3CCCCC3)CC[C@H]2C)n1
Outline: as §1

[16] = compound: COC(=O)N[C@@H](C)CNc1nccc(-c2cn(C(C)C)nc2-c2cc(Cl)cc(NS(C)(=O)=O)c2F)n1 [encorafenib]
Outline: as §1

[17] = compound: COC(=O)[C@H](CCSC)NC(=O)C1=C(C=C(C=C1)NC[C@H](CS)N)C2=CC=CC=C2
Outline: as §1

[18] = compound: COc1cc(Nc2ncc3c(n2)-c2ccc(Cl)cc2C(c2c(F)cccc2OC)=NC3)ccc1C(=O)O [alisertib]
Outline: as §1

[19] = compound: COc1cc2nc(-c3cc(F)ccc3O)nc(N[C@@H]3CNC[C@H]3C(C)(C)O)c2cc1OC
Outline: as §1

[20] = compound: COc1cc2ncnc(Nc3ccc(F)c(Cl)c3)c2cc1OCCCN1CCOCC1 [gefitinib]
Outline: as §1

Measured: log2 fold change

CIZ1 (UniProt Q9ULV3)
inactive: [1] 0.003 | [2] -0.003 | [3] 0.015 | [4] 0.104 | [5] 0 | [6] -0.084 | [7] -0.003 | [8] 0.008 | [9] -0.013 | [10] -0.001 | [11] -0.032 | [12] 0.017 | [13] 0.002 | [14] -0.005 | [15] 0.025 | [16] 0.036 | [17] 0.002 | [18] 0.023 | [19] 0.072 | [20] 0.014

CHD5 (UniProt Q8TDI0)
inactive: [1] -0.034 | [2] 0.022 | [3] 0.034 | [4] 0.165 | [5] -0.028 | [6] -0.026 | [7] 0.051 | [8] -0.019 | [9] 0.026 | [10] 0.026 | [11] -0.005 | [12] -0.022 | [13] 0 | [14] -0.042 | [15] 0.037 | [16] 0.024 | [17] 0.033 | [18] -0.016 | [19] -0.009 | [20] -0.001

CLPB isoform 2 (UniProt Q9H078)
inactive: [1] 0.011 | [2] 0.023 | [3] 0.026 | [4] 0.007 | [5] -0.042 | [6] 0.044 | [7] 0.078 | [8] -0.045 | [9] 0.004 | [10] -0.012 | [11] 0.065 | [12] -0.075 | [13] 0.031 | [14] 0.086 | [15] -0.049 | [16] 0.025 | [17] -0.053 | [18] 0.001 | [19] -0.036 | [20] 0.034

CHD3 isoform 3 (UniProt Q12873)
inactive: [1] -0.033 | [2] 0.009 | [3] 0.035 | [4] -0.02 | [5] -0.018 | [6] -0.039 | [7] -0.066 | [8] -0.027 | [9] 0.001 | [10] 0.004 | [11] 0.003 | [12] -0.074 | [13] 0.015 | [14] 0.006 | [15] 0.02 | [16] 0.029 | [17] 0.085 | [18] 0.047 | [19] 0.01 | [20] -0.014

CHD4 isoform 2 (UniProt Q14839)
inactive: [1] 0 | [2] 0.002 | [3] 0.028 | [4] -0.003 | [5] -0.002 | [6] 0.022 | [7] -0.054 | [8] -0.017 | [9] 0.002 | [10] 0.02 | [11] -0.004 | [12] -0.069 | [13] -0.014 | [14] 0.007 | [15] 0.017 | [16] 0.013 | [17] 0.087 | [18] 0.016 | [19] -0.007 | [20] -0.014

CLIP1 isoform 1 (UniProt P30622)
inactive: [1] -0.011 | [2] 0.016 | [3] -0.011 | [4] 0.034 | [5] 0.034 | [6] -0.03 | [7] -0.055 | [8] 0.02 | [9] 0.021 | [10] 0.008 | [11] -0.005 | [12] 0.038 | [13] 0.014 | [14] -0.006 | [15] -0.008 | [16] 0.003 | [17] -0.03 | [18] -0.016 | [19] 0.014 | [20] 0.001

CHID1 (UniProt Q9BWS9)
inactive: [1] 0.017 | [2] -0.011 | [3] 0.019 | [4] 0.038 | [5] -0.006 | [6] -0.007 | [7] 0.088 | [8] -0.045 | [9] 0.004 | [10] -0.009 | [11] 0.038 | [12] 0.029 | [13] -0.046 | [14] -0.003 | [15] 0.036 | [16] 0.006 | [17] -0.036 | [18] 0.001 | [19] 0.024 | [20] 0.024

CHML (UniProt P26374)
inactive: [1] 0.01 | [2] 0.008 | [3] 0.004 | [4] 0.011 | [5] 0.022 | [6] -0.007 | [7] -0.012 | [8] 0.026 | [9] -0.002 | [10] 0.005 | [11] -0.019 | [12] 0.008 | [13] -0.004 | [14] -0.025 | [15] 0.002 | [16] 0.003 | [17] 0.005 | [18] 0.014 | [19] 0.011 | [20] 0.012

CIAO2A (UniProt Q9H5X1)
inactive: [1] -0.028 | [2] -0.032 | [3] 0.094 | [4] -0.042 | [5] -0.007 | [6] 0.026 | [7] 0.233 | [8] -0.203 | [9] 0.033 | [10] 0.034 | [11] 0.034 | [12] 0.04 | [13] 0 | [14] -0.002 | [15] 0.109 | [16] 0.026 | [17] -0.052 | [18] 0.089 | [19] 0.009 | [20] 0.088

CISD2 (UniProt Q8N5K1)
inactive: [1] 0.046 | [2] 0.017 | [3] -0.008 | [4] 0.094 | [5] 0.025 | [6] -0.032 | [7] -0.022 | [8] 0.063 | [9] -0.005 | [10] -0.022 | [11] -0.029 | [12] 0.065 | [13] -0.006 | [14] 0.02 | [15] 0.05 | [16] 0.007 | [17] -0.095 | [18] -0.046 | [19] 0.059 | [20] 0.051

CMSS1 (UniProt Q9BQ75)
inactive: [1] -0.011 | [2] 0.005 | [3] 0.023 | [4] -0.007 | [5] -0.011 | [6] 0 | [7] 0.212 | [8] -0.086 | [9] 0.007 | [10] -0.003 | [11] 0.013 | [12] -0.036 | [13] -0.02 | [14] -0.009 | [15] -0.032 | [16] 0.015 | [17] 0.024 | [18] 0.02 | [19] 0.004 | [20] 0.025

CHKB (UniProt Q9Y259)
inactive: [1] -0.068 | [2] 0.014 | [3] -0.029 | [4] 0.201 | [5] 0.018 | [6] 0.068 | [7] 0.019 | [8] 0.047 | [9] 0.06 | [10] 0.047 | [11] 0.009 | [12] -0.049 | [13] 0.047 | [14] 0.013 | [15] 0.075 | [16] -0.046 | [17] -0.006 | [18] -0.018 | [19] -0.016 | [20] 0.087

CMAS (UniProt Q8NFW8)
inactive: [1] 0.005 | [2] 0.025 | [3] 0.023 | [4] 0.019 | [5] 0.008 | [6] -0.018 | [7] -0.106 | [8] 0.016 | [9] 0.012 | [10] 0.001 | [11] 0.043 | [12] 0.012 | [13] 0.018 | [14] 0 | [15] 0.013 | [16] -0.015 | [17] -0.018 | [18] 0.009 | [19] 0.007 | [20] -0.018

CHAF1A (UniProt Q13111)
inactive: [1] 0.005 | [2] 0.005 | [3] 0.006 | [4] 0.029 | [5] 0.003 | [6] -0.009 | [7] 0.029 | [8] 0.004 | [9] 0.038 | [10] -0.016 | [11] -0.003 | [12] -0.089 | [13] -0.019 | [14] 0.02 | [15] 0.038 | [16] 0.003 | [17] 0.063 | [18] -0.107 | [19] -0.01 | [20] -0.065

CHD8 (UniProt Q9HCK8)
inactive: [1] 0.079 | [2] 0.024 | [3] 0.034 | [4] -0.056 | [5] -0.135 | [6] -0.017 | [7] 0 | [8] 0.01 | [9] 0.042 | [10] 0.026 | [11] -0.009 | [12] -0.049 | [13] 0.019 | [14] -0.043 | [15] 0.041 | [16] 0.064 | [17] 0.087 | [18] -0.034 | [19] 0.09 | [20] 0.1

CLUH (UniProt O75153)
inactive: [1] -0.03 | [2] 0.014 | [3] 0.024 | [4] 0.012 | [5] -0.02 | [6] -0.009 | [7] -0.024 | [8] 0.117 | [9] 0.011 | [10] 0.01 | [11] -0.022 | [12] -0.076 | [13] -0.076 | [14] 0.002 | [15] -0.029 | [16] 0.007 | [17] 0.058 | [18] -0.014 | [19] -0.014 | [20] 0.017

Four neighbouring records out of the list so far, quoted:
CIAO2A (UniProt Q9H5X1)
inactive: [1] -0.028 | [2] -0.032 | [3] 0.094 | [4] -0.042 | [5] -0.007 | [6] 0.026 | [7] 0.233 | [8] -0.203 | [9] 0.033 | [10] 0.034 | [11] 0.034 | [12] 0.04 | [13] 0 | [14] -0.002 | [15] 0.109 | [16] 0.026 | [17] -0.052 | [18] 0.089 | [19] 0.009 | [20] 0.088

CISD2 (UniProt Q8N5K1)
inactive: [1] 0.046 | [2] 0.017 | [3] -0.008 | [4] 0.094 | [5] 0.025 | [6] -0.032 | [7] -0.022 | [8] 0.063 | [9] -0.005 | [10] -0.022 | [11] -0.029 | [12] 0.065 | [13] -0.006 | [14] 0.02 | [15] 0.05 | [16] 0.007 | [17] -0.095 | [18] -0.046 | [19] 0.059 | [20] 0.051

CMSS1 (UniProt Q9BQ75)
inactive: [1] -0.011 | [2] 0.005 | [3] 0.023 | [4] -0.007 | [5] -0.011 | [6] 0 | [7] 0.212 | [8] -0.086 | [9] 0.007 | [10] -0.003 | [11] 0.013 | [12] -0.036 | [13] -0.02 | [14] -0.009 | [15] -0.032 | [16] 0.015 | [17] 0.024 | [18] 0.02 | [19] 0.004 | [20] 0.025

CHKB (UniProt Q9Y259)
inactive: [1] -0.068 | [2] 0.014 | [3] -0.029 | [4] 0.201 | [5] 0.018 | [6] 0.068 | [7] 0.019 | [8] 0.047 | [9] 0.06 | [10] 0.047 | [11] 0.009 | [12] -0.049 | [13] 0.047 | [14] 0.013 | [15] 0.075 | [16] -0.046 | [17] -0.006 | [18] -0.018 | [19] -0.016 | [20] 0.087

— the supplement of paper PMC10849652
